The other results are listed elsewhere or left out.
molecular target: T1, OsSMF1 (Oryza sativa, UniProt Q6ZLB0 1-436); assay: protein-binding microarray (RPBM); PBS, 2% BSA, 51.3 ng/ul salmon testes DNA, 50 uM zinc acetate, 200 nM TF, 25 C, 1 h; high values mean tight binding; details: protein: recombinant; tags: N-terminal polyhistidine and DsRed monomer fusion (pET32a); chain copies: 2; label: CyDye5-dUTP incorporated in the synthesized complementary strand; 3' TTTTT single-stranded linker to array surface; dsDNA, one strand shown
T1 sequence: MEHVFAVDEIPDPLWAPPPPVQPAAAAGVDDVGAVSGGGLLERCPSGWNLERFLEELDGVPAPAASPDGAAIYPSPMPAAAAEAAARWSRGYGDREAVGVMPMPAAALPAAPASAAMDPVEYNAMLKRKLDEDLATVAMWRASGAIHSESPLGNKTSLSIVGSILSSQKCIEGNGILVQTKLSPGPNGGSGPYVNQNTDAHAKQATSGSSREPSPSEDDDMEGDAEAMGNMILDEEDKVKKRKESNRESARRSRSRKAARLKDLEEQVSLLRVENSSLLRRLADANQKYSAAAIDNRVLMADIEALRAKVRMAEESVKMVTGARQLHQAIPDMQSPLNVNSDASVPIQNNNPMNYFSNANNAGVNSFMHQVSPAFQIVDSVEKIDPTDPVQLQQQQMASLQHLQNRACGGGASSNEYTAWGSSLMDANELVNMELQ
Method in brief: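 Using Ni–NTA, transcription factors fused N-terminally to polyhistidine and DsRed were purified after expression in E. coli BL21-CodonPlus. These were incubated at 200 nM with a blocked, double-stranded custom Agilent array for 1 h at 25 °C in a buffer containing 50 µM zinc acetate, and the array was washed. The binding signal is per-feature fluorescence intensity (arbitrary units) on an Axon 4000B scanner.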

Sequence	binding signal
TCTATCTCAATGACATGTGGGTCCACATATGTCTATGACACGGAGTCACCTAGTGCAG	4110 fluorescence intensity (a.u.)
TCAACACTGCCACACAGGCGCCATATTAGCAAAACCGCTCCGGAGTCACCTAGTGCAG	3270 fluorescence intensity (a.u.)
TTGACCCTGCCTACTCCTACGTGGCAATCTGGCATCTGCACGGAGTCACCTAGTGCAG	11600 fluorescence intensity (a.u.)
CATGCAAGTATGAATCACATGTGTATCAGCATCATCGTCGCGGAGTCACCTAGTGCAG	4790 fluorescence intensity (a.u.)
TTCCATCTGAAGAACACGACCTGTGTGCTCAACTGTCAATCGGAGTCACCTAGTGCAG	6730 fluorescence intensity (a.u.)
TTCCTGACCTTGCTCCAAATGTCACACCGTCATCTATCCACGGAGTCACCTAGTGCAG	3670 fluorescence intensity (a.u.)
CAGATGGTGTGTCCAGATTCATGTACAATGATGTCACATTCGGAGTCACCTAGTGCAG	5530 fluorescence intensity (a.u.)
CGGCGGCATCTGTTGAGCGGTTAAGGTGGTGGCATGACTGCGGAGTCACCTAGTGCAG	3770 fluorescence intensity (a.u.)
GGACCTGGTCAGCGCTGCTGACGTGTGAATGGCGTGTGGCCGGAGTCACCTAGTGCAG	17100 fluorescence intensity (a.u.)
GCCGACGGCGACCGGCCGCGTAGTACGCGTGTCATCGTCGCGGAGTCACCTAGTGCAG	7800 fluorescence intensity (a.u.)
TTCACCGCTGCCACCACACCTCTCCTCTCCTCTCCTCTCCCGGAGTCACCTAGTGCAG	3240 fluorescence intensity (a.u.)
TTATTCAGATAATTTGATGATGATGAAAGCAGAAGCTTTGCGGAGTCACCTAGTGCAG	4140 fluorescence intensity (a.u.)
AATCACATAAATTTACATGTGTCACCTTCTATGCAAAAGGCGGAGTCACCTAGTGCAG	3330 fluorescence intensity (a.u.)
GAGCCGCTGATCCGCTGCACGGCGGCGCGGAGCGCGTCGACGGAGTCACCTAGTGCAG	39100 fluorescence intensity (a.u.)
CACTTGATGAGCTCCTCTCCATGTCCTCAAACGTACTGAACGGAGTCACCTAGTGCAG	25100 fluorescence intensity (a.u.)
TGCCGGATTATGTAAGGAAAATCTTGTCAGCACTGCTCCTCGGAGTCACCTAGTGCAG	3510 fluorescence intensity (a.u.)
TGACATTCTGGTCACTGTCAGAATCTCTCGGAAAATGAGGCGGAGTCACCTAGTGCAG	4080 fluorescence intensity (a.u.)
TTGTGCCGCACTAGTGGATATGTTTTCGGTAGGAATTTTACGGAGTCACCTAGTGCAG	3200 fluorescence intensity (a.u.)
ATGTTGCTCATCGTTACACGTGCTGCCTTTATATGCTATCCGGAGTCACCTAGTGCAG	5310 fluorescence intensity (a.u.)
TTTGCACGAAAGGCAGCCTGGGCAGCATCTAGCATGGGCGCGGAGTCACCTAGTGCAG	3560 fluorescence intensity (a.u.)
CAACCACAGTCGACGAACGCCAAGCACGCCGTGTCGCTCTCGGAGTCACCTAGTGCAG	22400 fluorescence intensity (a.u.)
AAAGCCAGTACACTCGCTGACTCGCCTGACCCTGTCAAACCGGAGTCACCTAGTGCAG	3380 fluorescence intensity (a.u.)
TACTTTCCTTATATATAACGTCTGTAATACGTTACGCCTTCGGAGTCACCTAGTGCAG	3250 fluorescence intensity (a.u.)
GCCACACCCTGTCAATGACATGTGGGCCCTCATGTGTCTACGGAGTCACCTAGTGCAG	4020 fluorescence intensity (a.u.)
GGGATCTTTAGGGAGCTCCACCATCACGTGACCCCAAGAGCGGAGTCACCTAGTGCAG	3480 fluorescence intensity (a.u.)
CTGCACTGCAAGTGACGTACACACACTATAGGACCTCGCTCGGAGTCACCTAGTGCAG	4000 fluorescence intensity (a.u.)
AAGCTTGGTTTTGCGATGACTCACCTCTAGTTGGAGAAGACGGAGTCACCTAGTGCAG	3930 fluorescence intensity (a.u.)

2 records drawn at random from those above:
Sequence	binding signal
TTGACCCTGCCTACTCCTACGTGGCAATCTGGCATCTGCACGGAGTCACCTAGTGCAG	11600 fluorescence intensity (a.u.)
CAACCACAGTCGACGAACGCCAAGCACGCCGTGTCGCTCTCGGAGTCACCTAGTGCAG	22400 fluorescence intensity (a.u.)

Further records follow.

Sequence	binding signal
AAATGCTACTACTTACTTGGGCATGGCTGCCATGCCACAACGGAGTCACCTAGTGCAG	35700 fluorescence intensity (a.u.)
ACGTGGGTCCCACTTGCCACGTGAGCCAAAACCCGGGTATCGGAGTCACCTAGTGCAG	11200 fluorescence intensity (a.u.)
GAGGGACTTATTCCATCACCGTCACAATTGGGCCTCCATACGGAGTCACCTAGTGCAG	3920 fluorescence intensity (a.u.)
TTGTCAAATCATGGCGTCATTAGGCTTAAAAGATTCGTCTCGGAGTCACCTAGTGCAG	4280 fluorescence intensity (a.u.)
AATCCGCCGAGGGACTTATTGTGACCGGTTTTGATTAGTTCGGAGTCACCTAGTGCAG	19600 fluorescence intensity (a.u.)
TGTTTATTTCTCAAGGGCTTATCAAATATATCAAACCCCTCGGAGTCACCTAGTGCAG	21400 fluorescence intensity (a.u.)
ATACGGAGTTACTCACAGGAACTTCTAGTTCATCTGTCCTCGGAGTCACCTAGTGCAG	22600 fluorescence intensity (a.u.)
GCCTCGACCACGACGACGACCACGACGACAACGATACCACCGGAGTCACCTAGTGCAG	3280 fluorescence intensity (a.u.)
CGTTCCGCCGCCGCCGCCGTCGTCCAGGGCGAAGCTTGCGCGGAGTCACCTAGTGCAG	4570 fluorescence intensity (a.u.)
CTAGCGCATATTAGCCGTTGGTTGGTTTAGTATACGTACGCGGAGTCACCTAGTGCAG	3290 fluorescence intensity (a.u.)
AGGTTGCCAAACCTTTAGTACCTAAGATGTGGCATGCCATCGGAGTCACCTAGTGCAG	3740 fluorescence intensity (a.u.)
TTGGTTGTTTACATGCTTCTGCTGATGATGATGCAGTTCTCGGAGTCACCTAGTGCAG	3970 fluorescence intensity (a.u.)
TGTTTATCTATTTTGTGTTGGTATTATTATTTCTTGTATACGGAGTCACCTAGTGCAG	25500 fluorescence intensity (a.u.)
CTCCTCTCCGATGAAGACCTGCCACCGGTCTGAACCATCTCGGAGTCACCTAGTGCAG	64300 fluorescence intensity (a.u.)
GCTCATAGAGCTACACACTGATGACAAGACATAAGGGAAGCGGAGTCACCTAGTGCAG	4350 fluorescence intensity (a.u.)
CAGTGCTAACGGAGGTTAACCGGACGGCGATGGTAAATCGCGGAGTCACCTAGTGCAG	4520 fluorescence intensity (a.u.)
ATGCCGGCCCAATCTCACGAGAGTTTATTGGGATAGGATACGGAGTCACCTAGTGCAG	28300 fluorescence intensity (a.u.)
GCTGCTTCTCTTAATTCTTCACATACACGTATCGGTTAGTCGGAGTCACCTAGTGCAG	4250 fluorescence intensity (a.u.)
CGGTGGCGCCGTCACCGCGTCCGTCTCCACCTCCGCTTCTCGGAGTCACCTAGTGCAG	3170 fluorescence intensity (a.u.)
GAGTCTCCTCTCCTCCCTCCCTCCCTCCCTTCCCTTTGCCCGGAGTCACCTAGTGCAG	11300 fluorescence intensity (a.u.)
AGCGCTACAACATTCATGCCTTGCCACCTTGGTGCAGGCTCGGAGTCACCTAGTGCAG	3350 fluorescence intensity (a.u.)
CCTGGTTTTGCTTCCCCGCGACGTGCAGCAGTGGATGGAGCGGAGTCACCTAGTGCAG	26300 fluorescence intensity (a.u.)
TGTAACAAATTAGATTATCCCATTTGTCTGACGTTGCCTGCGGAGTCACCTAGTGCAG	4820 fluorescence intensity (a.u.)
TCACCGGTCTCATCCCCGTCATATGCATCCTTATCTCCAACGGAGTCACCTAGTGCAG	4020 fluorescence intensity (a.u.)
ATATATAGATTATTTTGACTTGAAATTGTGAAATTACTCTCGGAGTCACCTAGTGCAG	4300 fluorescence intensity (a.u.)
GCCAAAGATTGCAAGATCGATCGCAAGGTAACGTACACGTCGGAGTCACCTAGTGCAG	3510 fluorescence intensity (a.u.)
TCCAGTTGTGCGTGGAGATGTTGGTGAAGAGCTTCCGCTGCGGAGTCACCTAGTGCAG	4270 fluorescence intensity (a.u.)

Reference: paper PMC7819943, “Rice protein-binding microarrays: a tool to detect cis-acting elements near promoter regions in rice”
